This passage reports binding results from US20190033295A1.

Chains of the proteins cited; added tags and fusions are not shown. Lines headed by an entry give the natural chain unless they say otherwise; changes in a name come on top.
UniProt P0DMV8: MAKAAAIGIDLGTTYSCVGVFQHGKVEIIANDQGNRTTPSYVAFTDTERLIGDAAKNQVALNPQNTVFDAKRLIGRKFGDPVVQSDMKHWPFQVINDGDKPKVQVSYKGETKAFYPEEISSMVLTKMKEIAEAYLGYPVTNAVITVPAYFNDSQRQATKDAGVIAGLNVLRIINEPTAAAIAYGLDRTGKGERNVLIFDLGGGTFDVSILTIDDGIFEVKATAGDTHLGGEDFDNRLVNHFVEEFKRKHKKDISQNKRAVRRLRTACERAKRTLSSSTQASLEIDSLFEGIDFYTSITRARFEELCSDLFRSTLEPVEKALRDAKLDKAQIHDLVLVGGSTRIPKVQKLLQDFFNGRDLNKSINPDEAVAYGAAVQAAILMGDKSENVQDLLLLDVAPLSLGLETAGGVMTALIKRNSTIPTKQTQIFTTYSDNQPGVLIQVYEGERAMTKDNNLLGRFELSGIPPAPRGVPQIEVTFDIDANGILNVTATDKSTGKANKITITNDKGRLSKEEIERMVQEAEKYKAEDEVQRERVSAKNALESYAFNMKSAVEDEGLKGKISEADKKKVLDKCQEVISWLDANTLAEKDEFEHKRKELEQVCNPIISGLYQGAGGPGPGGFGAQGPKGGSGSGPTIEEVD

The experiment has as its target T1, Strep-AIMP2-DX2 (human) (UniProt Q13155).
T1 sequence: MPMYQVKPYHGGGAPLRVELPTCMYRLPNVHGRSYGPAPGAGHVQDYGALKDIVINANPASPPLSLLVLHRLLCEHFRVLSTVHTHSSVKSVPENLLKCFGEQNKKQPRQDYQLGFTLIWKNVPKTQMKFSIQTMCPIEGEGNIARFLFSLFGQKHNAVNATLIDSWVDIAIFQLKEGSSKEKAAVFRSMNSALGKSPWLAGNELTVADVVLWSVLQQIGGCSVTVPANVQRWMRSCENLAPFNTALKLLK
Description: co-expression in 293T cells, strep-tag column IP, western blot with GFP antibody. In general terms: A western blot detects proteins with antibodies after separation by electrophoresis.

No constants are given. Whether binding was seen depends on the method and setting. Some results given as binding are weak or reduced against the parent protein; the word gives no strength.

For the substance “GFP-HSP70 fragment SB (substrate binding domain) (from UniProt P0DMV8 385-536)”, the binding result is “binds”.
